From PubChem BioAssay AID485314 (National Center for Advancing Translational Sciences (NCATS), 2010)
The campaign covered roughly 340,000 compounds. About 4,500 (1.3%) were called active. The inconclusive results got no clear call from the source; some entries with a clear call stand among them for comparison. Calls come from the whole dose curve; as a rule, active = well fitted inhibition curve with a large enough effect; inconclusive = small, poorly fitted or top-dose-only effect, or another doubt; inactive = no such curve, though single readings can be large or run the other way. Potencies of inconclusive entries are doubtful fits and often do not repeat.

Target: DNA polymerase beta (Homo sapiens) (UniProt P06746)
Assay: qHTS Assay for Inhibitors of DNA Polymerase Beta
Details: Pol beta primer extension/strand displacement, fluorescence kinetic; activity change, negative = inhibition: at 114 µM (top of the series)
Summary of the method: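 Pol beta (10 nM) and compounds were preincubated 15 min at room temperature, then 50 nM substrate (final) started primer extension/strand displacement. Reads were taken at 0 and 10 min; concentration-response data were fitted to a four-parameter Hill equation.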
% is set by controls: 0 for no effect and ±100 for the full control effect; potency is the fitted concentration of half-maximal effect.

SMILES | activity change, negative = inhibition | Potency
Cc1ccc(NC(=O)CCn2c(=O)c3cccn3c3ccccc32)c(Cl)c1 | inactive: 6.59% | 
Cc1cc(C(=O)COC(=O)C(C)NC(N)=O)c(C)n1Cc1ccco1 (stereo not drawn) |  | inconclusive: 50.1 µM [inhibitor, partial curve]
CCCCCCSC1=C(C#N)C(=O)NC2(CCCCC2)S1 |  | inconclusive: 50.1 µM [inhibitor, partial curve, poor fit]
Cc1nnc(NC(=O)CSc2ccc([N+](=O)[O-])cn2)s1 |  | inconclusive: 100 µM [inhibitor, single point]
CCn1nnc2cc(C(=O)Nc3cccc(Cl)c3)ccc21 |  | inconclusive: 22.4 µM [inhibitor, full curve]
CC(=O)c1sc(-c2ccc(Cl)cc2)cc1N |  | inconclusive: 0.708 µM [inhibitor, full curve, poor fit]
Cc1cccc(NC(=O)C(=O)NNC(=O)c2ccc(C(C)(C)C)cc2)c1 | inactive: -26.6% | 
CCC1C/C(=C/c2ccco2)C(=O)/C(=C/c2ccco2)C1 (stereo not drawn) |  | inconclusive: 28.2 µM [inhibitor, full curve]
c1ccc(CNc2ncnc3scc(-c4cccs4)c23)nc1 |  | inconclusive: 89.1 µM [inhibitor, single point]
CCC(=O)c1ccc(N2CCN(C(=O)c3cc([N+](=O)[O-])ccc3F)CC2)c(F)c1 |  | inconclusive: 1.58 µM [inhibitor, full curve, poor fit]
COc1ccc(C(=O)Nc2c(N)nc(SCC(=O)Nc3ccc(NC(C)=O)cc3)[nH]c2=O)cc1OC | inconclusive: -66% [inhibitor] | 
CCCc1cc2c(=O)c(-c3nc4ccccc4s3)c(COCC(=O)O)oc2cc1O | inactive: -27% | 
Cc1c(Cl)cccc1NS(=O)(=O)c1ccc2[nH]cc(C(=O)NC3CCCC3)c(=O)c2c1 |  | inconclusive: 39.8 µM [inhibitor, partial curve]
Oc1ccc(N=Cc2ccc(-c3cccs3)s2)cc1 |  | inconclusive: 31.6 µM [inhibitor, full curve]
Cc1nn(S(=O)(=O)c2ccc(Cl)cc2)c(C)c1Sc1ccc([N+](=O)[O-])cc1 |  | inconclusive: 89.1 µM [inhibitor, single point]
COc1ccc(P(=O)(COc2ccc([N+](=O)[O-])cc2)c2ccc(OC)cc2)cc1 |  | inconclusive: 1.78 µM [inhibitor, partial curve, poor fit]
CCOC(=O)c1sc(NC(=O)CSc2n[nH]c(-c3ccncc3)n2)c(C#N)c1C |  | inconclusive: 25.1 µM [inhibitor, partial curve]

Part of the list above, field by field.
c1ccc(CNc2ncnc3scc(-c4cccs4)c23)nc1
  Potency: inconclusive: 89.1 µM [inhibitor, single point]
Cc1nn(S(=O)(=O)c2ccc(Cl)cc2)c(C)c1Sc1ccc([N+](=O)[O-])cc1
  Potency: inconclusive: 89.1 µM [inhibitor, single point]
